Values from PubChem BioAssay AID720505 (Drosophila RNAi Screening Center, 2013).
The deposit covers about 20,000 reagents; below is an unselected part of those that have a named target and a result. Of all reagents, about 2,100 (10%) were called active. 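Raw plate signals without normalisation; calls rest on control-based scores that were not deposited; replicate 2 separates called from uncalled poorly.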 Not stated in the record: the amount of reagent, the time to read-out.

Screen: 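Fly regulators or components of the CRAC channel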 (primary screen)
System: Drosophila S2R+ cells
Reagent: long dsRNA against Drosophila genes
Challenge: thapsigargin (2 µM) in calcium-free buffer to empty internal stores, then 2 mM calcium added back
Measured: 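Fluo-4 signal in 384-well plates read on a FLIPR after thapsigargin (2 µM, calcium-free) store depletion and 2 mM calcium add-back; unnormalised mean endpoint per well; screen run twice, selected wells retested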
Scale: calcium signal and retest calcium signal: higher = more calcium entry after store depletion
Active means: 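About 1500 genes called as lowering calcium entry, by varying amounts, judged against per-plate control wells with STIM1 as positive and Rho1 as negative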
Calls: active = called as lowering calcium entry; inactive = not called

ATP6AP2 [DRSC16420] | calcium signal, replicate 1: 95.6; calcium signal, replicate 2: 139; call: inactive
Prm [DRSC11255] | calcium signal, replicate 1: 79.8; calcium signal, replicate 2: 83.2; call: inactive
COX6AL [DRSC21454] | calcium signal, replicate 1: 118; calcium signal, replicate 2: 135; call: inactive
CG16879 (retired record) [DRSC01918] | calcium signal, replicate 1: 128; calcium signal, replicate 2: 164; retest calcium signal, replicate 1: 109; retest calcium signal, replicate 2: 130; call: inactive
CG16879 (retired record) [DRSC22849] | calcium signal, replicate 1: 98; calcium signal, replicate 2: 112; call: inactive
Snx3 [DRSC16027] | calcium signal, replicate 1: 173; calcium signal, replicate 2: 77; call: inactive
CG12594 [DRSC14532] | calcium signal, replicate 1: 162; calcium signal, replicate 2: 104; call: inactive
CG18343 [DRSC06726] | calcium signal, replicate 1: 61.7; calcium signal, replicate 2: 112; call: active
CG30412 [DRSC04564] | calcium signal, replicate 1: 61.8; calcium signal, replicate 2: 180; retest calcium signal, replicate 1: 98.7; retest calcium signal, replicate 2: 102; call: inactive
CG30183 [DRSC04450] | calcium signal, replicate 1: 122; calcium signal, replicate 2: 208; call: inactive
CG30183 [DRSC04472] | calcium signal, replicate 1: 142; calcium signal, replicate 2: 165; call: inactive
CG31454 [DRSC14365] | calcium signal, replicate 1: 123; calcium signal, replicate 2: 204; call: inactive
CG31454 [DRSC22801] | calcium signal, replicate 1: 96.4; calcium signal, replicate 2: 116; call: inactive
CG17267 [DRSC15207] | calcium signal, replicate 1: 212; calcium signal, replicate 2: 140; call: inactive
Pax [DRSC01703] | calcium signal, replicate 1: 158; calcium signal, replicate 2: 90.7; call: inactive
Pax [DRSC02651] | calcium signal, replicate 1: 90.6; calcium signal, replicate 2: 156; call: inactive
Pax [DRSC02652] | calcium signal, replicate 1: 179; calcium signal, replicate 2: 91.1; call: inactive
Tpst [DRSC18989] | calcium signal, replicate 1: 99.3; calcium signal, replicate 2: 90; call: inactive
Tpst [DRSC19696] | calcium signal, replicate 1: 71.1; calcium signal, replicate 2: 104; call: active
Tpst [DRSC19723] | calcium signal, replicate 1: 122; calcium signal, replicate 2: 96.3; call: inactive
Tpst [DRSC19724] | calcium signal, replicate 1: 61.2; calcium signal, replicate 2: 61.6; call: active
Tpst [DRSC22621] | calcium signal, replicate 1: 102; calcium signal, replicate 2: 142; call: inactive
Cse1 [DRSC03287] | calcium signal, replicate 1: 83; calcium signal, replicate 2: 79; retest calcium signal, replicate 1: 82.2; retest calcium signal, replicate 2: 102; call: inactive
haf [DRSC00381] | calcium signal, replicate 1: 176; calcium signal, replicate 2: 140; call: inactive
CG13255 [DRSC11702] | calcium signal, replicate 1: 100; calcium signal, replicate 2: 105; call: inactive
CG8046 [DRSC07059] | calcium signal, replicate 1: 126; calcium signal, replicate 2: 77.3; call: inactive
alpha-Est7 [DRSC12619] | calcium signal, replicate 1: 103; calcium signal, replicate 2: 130; call: inactive
CG32102 [DRSC22015] | calcium signal, replicate 1: 110; calcium signal, replicate 2: 210; call: inactive
